{"sequences": {"note": "Sequences of proteins named here, by UniProt entry; tags and fusion partners are left off. Residues count along the entry.", "UniProt Q9EQY0, residues 21-977": "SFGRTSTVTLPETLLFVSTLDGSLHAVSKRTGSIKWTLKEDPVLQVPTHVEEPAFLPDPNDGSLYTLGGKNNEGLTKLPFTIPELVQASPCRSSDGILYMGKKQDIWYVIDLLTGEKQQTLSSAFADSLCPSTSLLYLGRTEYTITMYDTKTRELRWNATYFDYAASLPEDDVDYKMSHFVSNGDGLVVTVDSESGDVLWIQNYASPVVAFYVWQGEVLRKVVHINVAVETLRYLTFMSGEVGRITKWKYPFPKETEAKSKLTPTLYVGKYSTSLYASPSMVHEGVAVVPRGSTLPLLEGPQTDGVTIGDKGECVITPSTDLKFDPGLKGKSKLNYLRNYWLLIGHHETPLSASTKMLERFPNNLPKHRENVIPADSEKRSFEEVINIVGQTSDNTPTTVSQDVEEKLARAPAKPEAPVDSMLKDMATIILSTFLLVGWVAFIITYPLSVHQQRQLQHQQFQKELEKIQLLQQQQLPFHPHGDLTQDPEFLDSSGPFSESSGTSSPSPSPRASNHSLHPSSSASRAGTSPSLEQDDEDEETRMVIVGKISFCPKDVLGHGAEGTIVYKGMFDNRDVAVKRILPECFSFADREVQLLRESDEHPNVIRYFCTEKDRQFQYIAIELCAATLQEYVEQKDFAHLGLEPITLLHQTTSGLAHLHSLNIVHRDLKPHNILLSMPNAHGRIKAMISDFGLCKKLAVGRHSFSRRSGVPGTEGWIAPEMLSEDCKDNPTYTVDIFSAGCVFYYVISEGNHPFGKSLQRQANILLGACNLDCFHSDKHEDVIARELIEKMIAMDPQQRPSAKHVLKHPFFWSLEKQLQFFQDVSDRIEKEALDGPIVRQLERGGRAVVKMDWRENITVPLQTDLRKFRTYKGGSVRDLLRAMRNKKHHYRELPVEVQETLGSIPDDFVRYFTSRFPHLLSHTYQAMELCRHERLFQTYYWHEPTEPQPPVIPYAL", "UniProt Q6PHQ9": "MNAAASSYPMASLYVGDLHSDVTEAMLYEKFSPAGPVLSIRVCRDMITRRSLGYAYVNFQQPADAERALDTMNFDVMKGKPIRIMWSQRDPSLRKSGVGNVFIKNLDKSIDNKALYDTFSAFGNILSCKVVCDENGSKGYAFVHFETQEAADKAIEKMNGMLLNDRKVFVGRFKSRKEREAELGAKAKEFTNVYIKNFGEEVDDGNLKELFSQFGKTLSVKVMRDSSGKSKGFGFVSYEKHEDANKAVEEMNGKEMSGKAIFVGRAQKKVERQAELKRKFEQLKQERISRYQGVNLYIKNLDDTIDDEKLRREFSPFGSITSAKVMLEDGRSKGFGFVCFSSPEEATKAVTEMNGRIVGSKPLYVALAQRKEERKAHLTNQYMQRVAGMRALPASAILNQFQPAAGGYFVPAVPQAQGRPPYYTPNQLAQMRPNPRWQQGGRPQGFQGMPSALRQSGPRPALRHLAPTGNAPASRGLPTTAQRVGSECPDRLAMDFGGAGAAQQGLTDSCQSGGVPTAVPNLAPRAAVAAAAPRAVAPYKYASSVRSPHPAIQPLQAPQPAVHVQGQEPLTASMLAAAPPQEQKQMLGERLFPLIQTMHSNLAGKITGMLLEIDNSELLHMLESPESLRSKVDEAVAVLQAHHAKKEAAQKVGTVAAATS"}, "source": "paper PMC11161512", "molecular_target": "Inositol-Requiring Enzyme 1α (Ire1α) (mouse (endogenous in embryonic cortex)) (UniProt Q9EQY0)", "assay": "co-IP; endogenous Ire1α precipitated with anti-Ire1α antibody (Cell Signaling) and Sepharose A beads from E12.5 and E14.5 mouse cortical lysate (E1A buffer: 150 mM NaCl, 50 mM HEPES pH 7.0, 0.1% NP-40), 4 °C; rabbit IgG as control; Western blotting of co-precipitated proteins, normalised to precipitated Ire1α", "note": "These are yes or no findings as the source states them, for the method shown. In cells and extracts the contact can be indirect. Some entries that bind do so weakly or less than the wild type.", "data": [{"substance": "PABPC4 (from UniProt Q6PHQ9 1-660)", "values": [{"measurement": "binding", "value": "binds"}]}]}
